No constants are given. Whether binding was seen depends on the method and setting. In cells and extracts the contact can be indirect. Here binding means that the protein was enriched with, or labelled near, the bait; the list need not be complete.
Target: Msh6^Tt-3HA (T. thermophila) (UniProt Q23K54)
Test: affinity purification with mass spectrometry; 8 h of conjugation; cells lysed by sonication on ice in PBS; Msh6^Tt-3HA precipitated by its HA tag (Pierce HA-Tagged Magnetic IP/Co-IP kit), washes TBS and TBS-T; LC-MS/MS, MaxQuant iBAQ; WT lysate without HA tag as blank control; hits: iBAQ WT/iBAQ Msh6^Tt-3HA <= 0.1

Chains of the proteins cited; added tags and fusions are not shown. Lines headed by an entry give the natural chain unless they say otherwise; changes in a name come on top.
UniProt Q23K54: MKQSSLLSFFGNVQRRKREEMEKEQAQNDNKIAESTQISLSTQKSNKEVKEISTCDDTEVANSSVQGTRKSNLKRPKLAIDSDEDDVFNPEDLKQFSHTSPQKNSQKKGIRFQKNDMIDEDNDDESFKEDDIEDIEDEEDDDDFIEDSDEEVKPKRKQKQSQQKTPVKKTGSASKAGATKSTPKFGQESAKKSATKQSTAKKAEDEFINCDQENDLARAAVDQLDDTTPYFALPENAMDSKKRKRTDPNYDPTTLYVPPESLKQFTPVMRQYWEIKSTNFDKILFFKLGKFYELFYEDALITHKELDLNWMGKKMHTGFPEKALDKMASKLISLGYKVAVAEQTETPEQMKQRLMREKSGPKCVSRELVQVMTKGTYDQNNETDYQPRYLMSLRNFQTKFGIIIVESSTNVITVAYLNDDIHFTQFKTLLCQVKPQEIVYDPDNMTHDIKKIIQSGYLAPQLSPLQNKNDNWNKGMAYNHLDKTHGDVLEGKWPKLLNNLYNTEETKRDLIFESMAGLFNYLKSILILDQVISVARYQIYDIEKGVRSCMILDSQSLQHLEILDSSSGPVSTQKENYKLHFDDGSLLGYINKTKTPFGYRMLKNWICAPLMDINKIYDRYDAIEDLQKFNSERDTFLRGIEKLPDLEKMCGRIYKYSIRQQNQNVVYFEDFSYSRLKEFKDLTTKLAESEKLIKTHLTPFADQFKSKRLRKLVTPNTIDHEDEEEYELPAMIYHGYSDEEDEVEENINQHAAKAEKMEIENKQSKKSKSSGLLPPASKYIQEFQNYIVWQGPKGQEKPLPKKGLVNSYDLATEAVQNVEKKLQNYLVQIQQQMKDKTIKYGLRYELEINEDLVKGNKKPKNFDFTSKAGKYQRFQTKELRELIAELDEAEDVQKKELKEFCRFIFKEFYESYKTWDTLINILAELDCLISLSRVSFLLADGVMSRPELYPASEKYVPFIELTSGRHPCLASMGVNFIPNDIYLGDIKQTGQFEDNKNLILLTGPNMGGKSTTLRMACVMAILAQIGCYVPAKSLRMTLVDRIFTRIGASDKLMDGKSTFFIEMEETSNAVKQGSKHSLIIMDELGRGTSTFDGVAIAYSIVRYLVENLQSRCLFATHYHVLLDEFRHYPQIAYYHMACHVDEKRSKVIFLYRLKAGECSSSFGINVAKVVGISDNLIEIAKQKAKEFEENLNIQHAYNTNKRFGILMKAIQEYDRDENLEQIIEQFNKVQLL

binding | Binder
binds | TTHERM_00085290 (protein, UniProt Q236R9 1-254) MKIDSNLVVFITGASSGFGIQVGLDLLKKGCKCYLTDKDDIELQLISQYSSSQVVFRNLDVTNEEGIKKAIEDCVMTFGHIDAVLNSAGIGSLGCITSGDCNNKALERCLNINVIGTFNVSKYAALQMAQQQKQNKERKDYAIINVGSIASVNALERGTIYGASKGAVLSMTIPMARDLGKYGIRVVCICPGFFNTNMVKQIPEENLKNLAKLNCLGRHGEPSEFSSAFQAIIENTFINGTHFQLDSQMGIPNL
binds | TTHERM_01076960 (protein, UniProt Q22C43 1-679) MGDQIQNNNMITMRPPKIKNKAANPIQITAEQLLQRAFLDRKKPFVEPDYRIRDEDDLNEIKQRKRKEFENKIRQQRFHMGHWIKYAVFEEGLQEFRRARSVYERALEVDYKNISLWLKYIEMEMRHKFINHARNVFERAIELLPRVDQFWYKYAYMEEMIANYVAARNIFQRWMEWRPEEKAWLAYLSFEQRMGEVQNARQVMYNYMDAFPRLKTYLKVIKFEIKLGYKQEARQLFEKTLEELGQEALKEEYFVNFAKFEIRNQEYDRAREIFKFGLENIPKEKSKKLYEEYLSFEKQHGTKDDIDELIFNERRLHYKLLIAENKMNYDAWFDLVNLEIATGNSARTRDTFEHAVKNVPLAQEKRLWRRYIYLWYNYATFEEMEGNDPVKAKEVYERALKLVPHSKFTFSKLWVMYAHFQVRHENLEAARKIFGTAIGKCPNDKLFREYIDLEYKLANIDRVRKIYEKYIEVFPDNPDPFIQWAQLEKSLPELERYRAIFDLAINRPTMNMPEKVWKAYIDNEIELEENENVRNLFEELLKRSKNVKIWLSYASFEAKIDDREKCRAVYTRAEEYFKAEKLKEERAIILESWRKTELQFGDAQFIAQINAKQPQRVKKERKIVIAEGDIEEEAGKEEYYDYIFPGEEEGQNLTKLIQKAKQKALEKKLKEQAENQQNA
binds | TTHERM_00357080 (protein, UniProt Q22XW3 1-219) MLNKVVKRLFSYKSTIPATLPQLKFEYNELEPVLTANLLKFHHGKHHQAYVNNLNAIYEQISDAQKKNDVHKIAQLQSGLRFNLGGHINHAIYWDNLAPVSRGGGVFPDQNSPLTKAIQEKWGSYENFIQIFNGRTAAIQGSGWGWLGYDTVSKSLKMFELGNQDMPEWNSVIPLLTIDVWEHAYYLDYQNLRPKYLTEIWKVVNWQEVERRYLDAIKA

From PMC10743813
